Source: publication PMC12552625
These are yes or no findings as the source states them, for the method shown. Binding seen in cells or lysates may run through a third protein. Some results given as binding are weak or reduced against the parent protein; the word gives no strength.

Chains of the proteins cited; added tags and fusions are not shown.
UniProt Q92963: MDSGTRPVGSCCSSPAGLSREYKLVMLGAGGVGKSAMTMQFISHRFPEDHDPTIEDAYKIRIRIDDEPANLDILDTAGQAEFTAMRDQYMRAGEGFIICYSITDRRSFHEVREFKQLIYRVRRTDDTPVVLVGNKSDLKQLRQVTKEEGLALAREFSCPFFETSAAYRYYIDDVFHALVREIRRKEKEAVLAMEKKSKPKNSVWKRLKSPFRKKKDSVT
UniProt P61289: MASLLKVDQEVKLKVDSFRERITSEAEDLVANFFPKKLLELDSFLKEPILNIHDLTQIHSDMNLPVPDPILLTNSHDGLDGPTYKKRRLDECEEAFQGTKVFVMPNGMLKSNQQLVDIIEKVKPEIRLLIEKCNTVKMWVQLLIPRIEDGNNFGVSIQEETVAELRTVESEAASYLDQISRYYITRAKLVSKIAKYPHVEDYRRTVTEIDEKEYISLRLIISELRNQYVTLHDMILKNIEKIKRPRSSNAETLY

Molecular target: RIT1 (HA tag) (UniProt Q92963)
Assay: co-IP; U-CH1 cells, 36 h after plasmid transfection, RIPA lysis buffer at 4 °C; specific agarose beads, 4 °C for 4 h, washed three times, Western blot; which protein was precipitated is not told

binding: binds
Substance: REGγ (Flag tag) (from UniProt P61289 1-254)
